Results reported in publication PMC10133297.

Biological target: T1, WT-CsgF (curli accessory protein CsgF) (E. coli) (UniProt P0AE98)
T1 sequence (chain, lysine residues sparsely labeled with Alexa-633; labeled,unlabeled 1,50): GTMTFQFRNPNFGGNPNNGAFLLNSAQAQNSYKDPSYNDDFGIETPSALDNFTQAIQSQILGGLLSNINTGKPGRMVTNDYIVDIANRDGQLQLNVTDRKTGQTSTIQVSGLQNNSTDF
Assay: fluorescence microscopy of recruitment into phase-separated droplets; CsgF condensates (20 µM, from 100 µM CsgF in 25 mM potassium phosphate pH 7.5) added to the labelled curli subunit (CsgB 20 µM) at room temperature; labeled:unlabeled 1:50; both purified

binding: binds
Substance: CsgB∆R5 (CsgB truncation mutant that is missing the C-terminal R5 repeat) (E. coli) (domain or fragment)

Results are given in words; binding and its absence hold for the method and conditions named. Binding can be weak; no strength is given.
